This passage reports binding results from publication PMC10442049.

Amino acid sequences for entries named in this document (tags omitted).
UniProt F4JL11: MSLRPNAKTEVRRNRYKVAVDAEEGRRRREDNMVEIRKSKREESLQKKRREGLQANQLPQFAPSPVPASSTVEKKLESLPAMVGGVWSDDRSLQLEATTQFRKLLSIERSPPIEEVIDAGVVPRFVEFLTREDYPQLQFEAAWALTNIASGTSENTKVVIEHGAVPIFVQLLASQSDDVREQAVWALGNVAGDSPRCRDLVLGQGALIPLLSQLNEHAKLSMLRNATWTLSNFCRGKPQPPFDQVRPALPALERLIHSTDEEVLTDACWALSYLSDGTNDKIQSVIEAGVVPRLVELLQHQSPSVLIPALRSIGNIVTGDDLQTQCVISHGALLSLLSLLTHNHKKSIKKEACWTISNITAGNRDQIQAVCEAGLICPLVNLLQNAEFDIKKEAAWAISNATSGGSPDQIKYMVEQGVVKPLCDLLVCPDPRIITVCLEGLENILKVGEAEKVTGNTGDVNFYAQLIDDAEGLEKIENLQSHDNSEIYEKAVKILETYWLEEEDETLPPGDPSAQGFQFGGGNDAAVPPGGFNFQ
UniProt Q96321: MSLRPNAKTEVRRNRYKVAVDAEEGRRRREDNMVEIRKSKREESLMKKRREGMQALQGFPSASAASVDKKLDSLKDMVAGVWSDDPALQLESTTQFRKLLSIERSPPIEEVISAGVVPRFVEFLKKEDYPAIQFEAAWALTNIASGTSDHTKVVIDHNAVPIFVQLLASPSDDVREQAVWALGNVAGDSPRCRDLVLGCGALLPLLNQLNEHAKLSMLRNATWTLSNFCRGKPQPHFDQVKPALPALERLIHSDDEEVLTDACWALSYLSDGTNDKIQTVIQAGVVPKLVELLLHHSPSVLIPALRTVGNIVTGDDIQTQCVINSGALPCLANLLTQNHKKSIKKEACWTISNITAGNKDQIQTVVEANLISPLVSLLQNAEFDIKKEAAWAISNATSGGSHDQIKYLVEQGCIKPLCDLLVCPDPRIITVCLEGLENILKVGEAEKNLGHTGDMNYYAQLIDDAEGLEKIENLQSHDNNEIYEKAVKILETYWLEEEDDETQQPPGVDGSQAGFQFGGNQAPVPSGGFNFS
UniProt F4JP43: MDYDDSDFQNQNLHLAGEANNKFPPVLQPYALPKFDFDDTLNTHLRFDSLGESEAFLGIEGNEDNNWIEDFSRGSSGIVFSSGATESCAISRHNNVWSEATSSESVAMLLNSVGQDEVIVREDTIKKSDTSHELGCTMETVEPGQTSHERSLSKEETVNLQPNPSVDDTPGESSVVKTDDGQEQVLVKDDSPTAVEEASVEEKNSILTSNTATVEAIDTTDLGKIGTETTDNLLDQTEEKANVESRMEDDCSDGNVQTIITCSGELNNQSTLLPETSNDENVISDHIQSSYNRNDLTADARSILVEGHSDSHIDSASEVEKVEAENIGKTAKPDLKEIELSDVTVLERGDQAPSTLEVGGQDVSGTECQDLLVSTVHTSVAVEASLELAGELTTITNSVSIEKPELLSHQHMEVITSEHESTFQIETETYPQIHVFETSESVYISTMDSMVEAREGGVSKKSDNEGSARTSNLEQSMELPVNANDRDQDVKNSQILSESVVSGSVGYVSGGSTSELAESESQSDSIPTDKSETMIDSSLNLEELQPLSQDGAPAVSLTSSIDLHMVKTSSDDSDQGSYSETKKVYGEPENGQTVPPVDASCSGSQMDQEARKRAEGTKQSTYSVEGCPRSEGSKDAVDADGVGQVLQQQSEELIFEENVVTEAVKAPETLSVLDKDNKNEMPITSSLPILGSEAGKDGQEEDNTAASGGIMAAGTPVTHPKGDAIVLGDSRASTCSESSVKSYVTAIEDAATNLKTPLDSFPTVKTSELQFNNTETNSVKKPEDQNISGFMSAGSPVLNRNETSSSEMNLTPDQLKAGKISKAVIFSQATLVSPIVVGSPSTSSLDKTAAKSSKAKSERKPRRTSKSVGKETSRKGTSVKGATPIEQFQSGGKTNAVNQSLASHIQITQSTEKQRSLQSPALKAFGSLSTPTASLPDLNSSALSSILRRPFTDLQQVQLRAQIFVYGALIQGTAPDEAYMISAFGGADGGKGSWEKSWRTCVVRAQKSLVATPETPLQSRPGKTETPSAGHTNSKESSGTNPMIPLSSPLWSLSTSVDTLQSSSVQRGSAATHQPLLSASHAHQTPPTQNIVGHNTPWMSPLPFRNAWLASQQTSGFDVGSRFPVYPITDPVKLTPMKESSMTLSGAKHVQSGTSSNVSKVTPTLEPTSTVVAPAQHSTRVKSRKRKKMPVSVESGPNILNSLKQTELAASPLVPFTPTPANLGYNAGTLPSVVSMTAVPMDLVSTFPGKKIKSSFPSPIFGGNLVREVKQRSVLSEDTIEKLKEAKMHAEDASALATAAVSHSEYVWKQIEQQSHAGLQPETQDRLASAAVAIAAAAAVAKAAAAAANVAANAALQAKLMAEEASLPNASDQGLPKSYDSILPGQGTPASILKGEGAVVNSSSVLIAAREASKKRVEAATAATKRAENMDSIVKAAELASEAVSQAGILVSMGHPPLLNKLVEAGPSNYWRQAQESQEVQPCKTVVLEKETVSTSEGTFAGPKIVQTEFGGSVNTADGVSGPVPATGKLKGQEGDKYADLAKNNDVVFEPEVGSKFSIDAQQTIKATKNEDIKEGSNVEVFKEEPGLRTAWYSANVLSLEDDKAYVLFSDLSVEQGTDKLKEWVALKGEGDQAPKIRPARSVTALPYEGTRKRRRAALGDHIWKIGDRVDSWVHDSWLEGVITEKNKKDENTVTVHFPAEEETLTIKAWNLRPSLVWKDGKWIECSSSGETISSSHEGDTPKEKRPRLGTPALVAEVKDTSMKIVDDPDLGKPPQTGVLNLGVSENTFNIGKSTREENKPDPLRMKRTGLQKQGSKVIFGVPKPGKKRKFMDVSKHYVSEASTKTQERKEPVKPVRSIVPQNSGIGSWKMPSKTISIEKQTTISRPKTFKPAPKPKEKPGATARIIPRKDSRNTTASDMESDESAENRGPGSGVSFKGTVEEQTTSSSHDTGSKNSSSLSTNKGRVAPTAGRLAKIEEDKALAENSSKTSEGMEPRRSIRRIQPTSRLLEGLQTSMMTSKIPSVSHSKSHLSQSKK

Test [1] addresses IMPA2-Myc (from pIMPA2:IMPA2-Myc) (Arabidopsis thaliana) (UniProt F4JL11). Nature of the test: affinity purification with mass spectrometry; IMPA1-Myc or IMPA2-Myc as bait from transgenic Arabidopsis seedlings; anti-Myc agarose beads, 4 °C, 2 h; lysis buffer 50 mM Tris pH 7.6, 150 mM NaCl, 5 mM MgCl2, 10% glycerol, 0.1% NP-40, 0.5 mM DTT.
Test [2] concerns the target IMPA1-Myc (from pIMPA1:IMPA1-Myc) (Arabidopsis thaliana) (UniProt Q96321). The description is as above.

No constants are given. Whether binding was seen depends on the method and setting. In cells and extracts the contact can be indirect. These calls come from enrichment with a bait or labelling near it, and not all partners need be listed.

“SWO1 (SWOLLEN 1), endogenous (from UniProt F4JP43 1-2037)”: the binding entry in test [1] and in test [2] was “binds” each time.
